Results reported in US20200165330A1 (ORDER MADE MEDICAL RESEARCH, published 2020).
These are yes or no findings as the source states them, for the method shown. Some binding calls cover weakened binding; strength is not graded here.

Assays:
[1] = target: T1, Human recombinant VEGF165 (human, UniProt P15692 181-395); test: ELISA on immobilized VEGF165, antibody serially diluted from 1 µg/ml
T1 construct: also called rhVEGF165; rhVEGF

human VEGF121 [2] = target: T2, human VEGF121 (human, UniProt P15692 207-321); test: ELISA, human VEGF121 coated at 20 ng/well, antibody serially diluted from 1 ug/ml, peroxidase anti-human Ig, absorbance 450 nm
T2 sequence: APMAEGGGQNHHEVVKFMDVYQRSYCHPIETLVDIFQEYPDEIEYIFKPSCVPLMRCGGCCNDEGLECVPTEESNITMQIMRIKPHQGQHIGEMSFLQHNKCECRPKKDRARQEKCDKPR
Method: (§1) Next, after 3 times of washing with 300 μL of 0.02% Tween 20-containing PBS (−) (hereafter, denoted as “PBS-T”), 300 μL of 3% skim milk-containing PBS (−) was dispensed to each well, followed by blocking at 37° C. for 1 hour. […] After washing similarly, TMB Single Solution was added for color development at room temperature. After the reaction was stopped with 1 N sulfuric acid, absorbance at 450 nm was measured using a plate reader (Molecular Devices).

[3] = target: T1, Human recombinant VEGF165; test: ELISA, human VEGF165 coated at 20 ng/well, antibody serially diluted from 1 ug/ml, peroxidase anti-human Ig, absorbance 450 nm
Method: as §1

[4] = target: T1, Human recombinant VEGF165; test: ELISA on immobilized rhVEGF165
human VEGF121 [5] = target: T2, human VEGF121; test: ELISA on immobilized VEGF121, antibody serially diluted from 1 µg/ml
canine VEGFA (VEGF164) [6] = target: T3, canine VEGFA (VEGF164) (canine, UniProt Q9MYV3-3 27-190); test: ELISA, canine VEGFA coated at 20 ng/well, antibody serially diluted from 1 ug/ml, peroxidase anti-canine Ig, absorbance 450 nm
T3 construct: also called canine VEGF164
T3 sequence (looked up): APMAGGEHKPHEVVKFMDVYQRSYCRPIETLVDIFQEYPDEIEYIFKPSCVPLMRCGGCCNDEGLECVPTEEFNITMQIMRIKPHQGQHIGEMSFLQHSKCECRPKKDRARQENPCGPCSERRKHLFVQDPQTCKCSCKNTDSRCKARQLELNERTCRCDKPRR
Method: (§2) Next, after 3 times of washing with 300 μL of 0.02% Tween 20-containing PBS (−) (hereafter, denoted as “PBS-T”), 300 μL of 3% skim milk-containing PBS (−) was dispensed into each well, followed by blocking at 37° C. for 1 hour. […] After washing similarly, TMB Single Solution was added for color development at room temperature. After the reaction was stopped with 1 N sulfuric acid, absorbance at 450 nm was measured using a plate reader (Molecular Devices).

[7] = target: T1, Human recombinant VEGF165; test: ELISA on immobilized human VEGF165, antibody serially diluted from 1 µg/ml
canine VEGFA (VEGF164) [8] = target: T3, canine VEGFA (VEGF164); test: ELISA on immobilized canine VEGFA, antibody serially diluted from 1 µg/ml
[9] = target: T1, Human recombinant VEGF165; test: ELISA, human VEGF165 coated at 20 ng/well, antibody serially diluted from 1 ug/ml, peroxidase anti-canine Ig, absorbance 450 nm
Method: as §2

Measured: binding

B1: human IgG1 chimeric KLHa505 antibody (antibody, V domains shown)
VH: QIQLVQSGPELKKPGETVKISCKASGYTFTNYGMNWVKQAPGKGLKWMGWINTYTGEPTYLDDFKGRFAFSLETSASTAYLQINNLKNEDTSTYFCARFSYGITWFFDVWGAGTTVTVSS
VL: DIVMSQSPSSLAVSAGEKVTMSCKSSQSLLNSRTRKNYLAWYQQKPGQSPKLLIYWASTRESGVPDRFTGSGSGTDFTLTISSVQAEDLAVYYCKQSYNLYTFGGGTKLEIKT
binds: [1] | human VEGF121 [2] | [3] | [4] | human VEGF121 [5]

B2: canine-IgGB chimeric KLHb1501 antibody (antibody, V domains shown)
VH: DVQLQESGPGLVKPSQSLSLTCTVTGYSITSDYAWTWIRQFPGDKLEWMGYISYSGSTRYNPSLKSRISITRDTSKNQFFLHLNSVTTEDTATYFCARGGDYYGSRPWFAYWGQGTLVTVSA
VL: QAVVTQESALTTSPGETVTLTCRSSTGAVTISNYANWVQEKPDHLFTGLIGGTNNRAPDVPARFSGSLIGDKAALTITGAQTEDEAIYFCALWYSNHLVFGEGTKLTVLQ
notes: also called KLHb1501CC; KLHb1501CC antibody
binds: canine VEGFA (VEGF164) [6] | [7] | canine VEGFA (VEGF164) [8] | [9]
